Measurements as given in PMC9852244.
These are yes or no findings as the source states them, for the method shown. Binding seen in cells or lysates may run through a third protein. Some binding calls cover weakened binding; strength is not graded here. Where a sequence is shown, tags or fusion partners need not be part of it. One block for each binder: values may come before it.

Legend:
[1] = biological target: T1, FLAG-tagged mouse RIPK1 (doxycycline-inducible) (mouse) (UniProt Q60855); test: co-IP; FLAG-IP (ANTI-FLAG M2 affinity gel, 16 h at 4 °C) from lysates of Dox-induced FLAG-mRIPK1-rescued Ripk1-/- MEFs; 30 min pre-treatment with inhibitors (SM, zVAD, with or without MK2 inhibitor) followed by 120 min TNF; immunoblot
T1 sequence: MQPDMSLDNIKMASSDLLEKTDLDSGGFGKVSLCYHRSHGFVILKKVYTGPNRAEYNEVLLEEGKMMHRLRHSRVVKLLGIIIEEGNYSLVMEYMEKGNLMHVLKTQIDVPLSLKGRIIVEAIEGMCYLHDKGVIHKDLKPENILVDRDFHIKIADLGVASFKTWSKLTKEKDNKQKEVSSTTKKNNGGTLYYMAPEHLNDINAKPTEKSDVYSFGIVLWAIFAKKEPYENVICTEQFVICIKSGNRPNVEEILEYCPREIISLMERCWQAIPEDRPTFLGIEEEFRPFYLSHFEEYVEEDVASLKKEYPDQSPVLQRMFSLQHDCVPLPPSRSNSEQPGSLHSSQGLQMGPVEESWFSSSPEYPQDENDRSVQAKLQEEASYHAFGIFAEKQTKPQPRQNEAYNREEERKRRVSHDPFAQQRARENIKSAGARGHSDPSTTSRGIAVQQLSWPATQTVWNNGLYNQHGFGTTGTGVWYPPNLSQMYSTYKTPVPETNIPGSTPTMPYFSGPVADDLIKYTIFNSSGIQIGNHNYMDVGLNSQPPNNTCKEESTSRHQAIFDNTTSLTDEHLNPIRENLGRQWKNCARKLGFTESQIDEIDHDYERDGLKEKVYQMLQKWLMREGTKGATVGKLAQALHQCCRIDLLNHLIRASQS

[2] = biological target: T2, FLAG-tagged mouse RIPK1 (doxycycline-inducible) (mouse), Q60855; test: as above; conditions: remark: other sources report otherwise
T2 chain: T1 sequence

binding [1]: binds
B1: CASP8 (protein, UniProt O89110 1-480)
chain: MDFQSCLYAIAEELGSEDLAALKFLCLDYIPHKKQETIEDAQKLFLRLREKGMLEEGNLSFLKELLFHISRWDLLVNFLDCNREEMVRELRDPDNAQISPYRVMLFKLSEEVSELELRSFKFLLNNEIPKCKLEDDLSLLEIFVEMEKRTMLAENNLETLKSICDQVNKSLLGKIEDYERSSTERRMSLEGREELPPSVLDEMSLKMAELCDSPREQDSESRTSDKVYQMKNKPRGYCLIINNHDFSKAREDITQLRKMKDRKGTDCDKEALSKTFKELHFEIVSYDDCTANEIHEILEGYQSADHKNKDCFICCILSHGDKGVVYGTDGKEASIYDLTSYFTGSKCPSLSGKPKIFFIQACQGSNFQKGVPDEAGFEQQNHTLEVDSSSHKNYIPDEADFLLGMATVKNCVSYRDPVNGTWYIQSLCQSLRERCPQGDDILSILTGVNYDVSNKDDRRNKGKQMPQPTFTLRKKLFFPP

binding [2]: binds
B2: RIPK3 (endogenous, MEFs), Q9QZL0 1-486 (protein)
chain: MSSVKLWPTGASAVPLVSREELKKLEFVGKGGFGVVFRAHHRTWNHDVAVKIVNSKKISWEVKAMVNLRNENVLLLLGVTEDLQWDFVSGQALVTRFMENGSLAGLLQPECPRPWPLLCRLLQEVVLGMCYLHSLNPPLLHRDLKPSNILLDPELHAKLADFGLSTFQGGSQSGSGSGSGSRDSGGTLAYLDPELLFDVNLKASKASDVYSFGILVWAVLAGREAELVDKTSLIRETVCDRQSRPPLTELPPGSPETPGLEKLKELMIHCWGSQSENRPSFQDCEPKTNEVYNLVKDKVDAAVSEVKHYLSQHRSSGRNLSAREPSQRGTEMDCPRETMVSKMLDRLHLEEPSGPVPGKCPERQAQDTSVGPATPARTSSDPVAGTPQIPHTLPFRGTTPGPVFTETPGPHPQRNQGDGRHGTPWYPWTPPNPMTGPPALVFNNCSEVQIGNYNSLVAPPRTTASSSAKYDQAQFGRGRGWQPFHK
